Source: article PMC11796312, “Multifunctional, Fluorene‐Based Modulator of Cholinergic and GABAergic Neurotransmission as a Novel Drug Candidate for Palliative Treatment of Alzheimer's Disease” (Angewandte Chemie (International Ed. in English), 2024)

Chains of the proteins cited; added tags and fusions are not shown.
UniProt P50406, whole entry: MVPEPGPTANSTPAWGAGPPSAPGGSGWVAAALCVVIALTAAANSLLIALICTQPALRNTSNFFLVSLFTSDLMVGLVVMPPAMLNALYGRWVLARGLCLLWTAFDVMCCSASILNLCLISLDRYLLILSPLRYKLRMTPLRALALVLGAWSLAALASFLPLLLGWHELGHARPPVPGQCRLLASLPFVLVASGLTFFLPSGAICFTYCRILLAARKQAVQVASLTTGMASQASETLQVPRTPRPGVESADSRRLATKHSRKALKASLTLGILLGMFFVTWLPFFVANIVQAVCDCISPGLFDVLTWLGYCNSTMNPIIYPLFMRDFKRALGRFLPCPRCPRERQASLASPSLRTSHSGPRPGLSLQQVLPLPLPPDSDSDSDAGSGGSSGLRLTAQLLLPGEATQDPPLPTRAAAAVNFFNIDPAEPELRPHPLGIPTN

Target: T1, human serotonin 5-HT6 receptor (Homo sapiens, UniProt P50406)
T1 construct: host or cells: 1321N1
Test: cAMP 5-HT6 functional assay
Assay type: cell-based

COc1ccc(NS(=O)(=O)c2ccc(I)cc2)cc1N1CCN(C)CC1 [SB258585, reference compound]
5-HT6 antagonist mode pKb ± SEM: 8.69±0.005
